In article doi:10.1101/2025.03.24.645041 (2025):
Where a chain is given by its changes, count along the chain named. Results are given in words; binding and its absence hold for the method and conditions named. For some of these results: In cells and extracts the contact can be indirect. Some results given as binding are weak or reduced against the parent protein; the word gives no strength. For some of these results: Sequences can lack the tags named with a protein.

Experiments:
[1] = target: T1, Strep II-Myo2(1150–1567) (budding yeast) (UniProt P19524); assay: SEC; Myo2 tail co-expressed in E. coli with MBP-fused Vac17 peptide; MBP affinity purification on amylose resin, MBP cleaved with TEV protease, then Superdex 200 Increase 10/300 GL; compared with apo Myo2 tail; both purified
T1 sequence: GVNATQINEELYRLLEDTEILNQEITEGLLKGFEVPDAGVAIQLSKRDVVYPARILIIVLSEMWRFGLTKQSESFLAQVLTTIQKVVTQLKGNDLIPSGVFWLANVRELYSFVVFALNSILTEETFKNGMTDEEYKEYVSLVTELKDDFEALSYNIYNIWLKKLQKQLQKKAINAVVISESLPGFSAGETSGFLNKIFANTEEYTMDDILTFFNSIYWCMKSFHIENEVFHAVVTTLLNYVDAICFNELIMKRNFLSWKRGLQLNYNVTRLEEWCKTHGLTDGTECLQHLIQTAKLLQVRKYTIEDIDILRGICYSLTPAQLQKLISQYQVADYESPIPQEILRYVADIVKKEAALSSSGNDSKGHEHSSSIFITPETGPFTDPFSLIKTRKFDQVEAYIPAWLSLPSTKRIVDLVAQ

[2] = target: T1, Strep II-Myo2(1150–1567) (budding yeast); assay: pull-down + SEC; Myo2 tail co-expressed with MBP-fused Vac17(H); first pulled down with amylose resin, treated with TEV protease, then pulled down with Strep-Tactin to isolate Myo2, then gel filtration; both purified
[3] = target: T1, Strep II-Myo2(1150–1567) (budding yeast); assay: cryo-EM structure; co-expressed and co-purified Vac17(H+MBD)-Myo2 tail complex (co-eluted as a single peak in gel filtration); 150 uM fluorinated octyl-maltoside; two reconstructions from one dataset (5.75 Å and 7.56 Å); both purified
[4] = target: T2, Strep II-Myo2 tail myo2(K1408A, R1449E) double mutant (budding yeast) (UniProt P19524); assay: pull-down; Strep II-Myo2 tail (wild type or mutant) co-expressed with MBP or MBP-Vac17(H) in BL21(DE3); lysate incubated with StreptactinXT 4Flow beads 1 h at 4°C; washes with 50 mM Tris-HCl pH 8.0, 400 mM NaCl, 0.1% Tween, 5 mM βME; blot
T2 sequence: T1 sequence with K259A, R300E

[5] = target: T3, Strep II-Myo2 tail myo2(E1338R, K1408A, V1448A) triple mutant (budding yeast) (UniProt P19524); assay: as above
T3 sequence: T1 sequence with E189R, K259A, V299A

[6] = target: T1, Strep II-Myo2(1150–1567) (budding yeast); assay: as above

Binder: TVPNEAPNDSPQSQSTRSSLGSFQPRPLKIIERQRLCMVTPSKPPKKS (domain or fragment, UniProt P25591 110-157) [Vac17(MBD) peptide, Vac17(110–157), MBP cleaved off]
- binding [1]: binds

B1: Vac17(H) peptide, Vac17(1–109), MBP cleaved off (domain or fragment, UniProt P25591 1-109)
chain: MATQALEDITERLLIRSQEAILQLDLWIQRQQRSSICQTTDQESLDKLSQQYNQYMSQLNSLYVRSESVRDKLSKEQQRRLITEDNEHQRIEDLVREFQDITLRLNELA
- binding [2]: binds
- binding [1]: binds

B2: Vac17(H+MBD) peptide, Vac17(1–157) (domain or fragment, UniProt P25591 1-157)
chain: MATQALEDITERLLIRSQEAILQLDLWIQRQQRSSICQTTDQESLDKLSQQYNQYMSQLNSLYVRSESVRDKLSKEQQRRLITEDNEHQRIEDLVREFQDITLRLNELATVPNEAPNDSPQSQSTRSSLGSFQPRPLKIIERQRLCMVTPSKPPKKS
- binding [3]: binds

B3: MBP-Vac17(H) (domain or fragment, UniProt P25591 1-109)
chain: B1 chain
- binding [4]: binds
- binding [5]: binds
- binding [6]: binds
